Data published in patent publication US7723370B2, “1, 2-diaryl pyrazoles useful as analgetic and antiinflammatory agents” (Richter Gedeon Vegyeszeti Gyar RT., priority 2005, dated 2010).
At least one compound was matched to its structure with a doubt left.

Test system: blood pressure of New Zealand white rabbits
Experiment: Anti-hypertensive activity in rabbit
Type: in vivo
Details: 30 mg/kg p.o.; reference molsidomine 2 mg/kg

## Cc1ccc(-c2cc(C(F)(F)F)nn2-c2ccc(S(N)(=O)=O)cc2)cc1 [Celecoxib, reference compound]
  Anti-hypertensive activity: did not have such effect
